Measurements reported in patent US20200155555A1 (Endocyte, Inc., priority 2007, published 2020).

Assay: general procedure: Fmoc solid-phase peptide synthesis; H-Cys(4-methoxytrityl)-2-chlorotrityl-Resin (loading 0.56 mmol/g); Fmoc-AA-Wang resin; PyBOP, DIPEA
[1] = whole synthesis, scale 0.1 mmol

Substance	conjugation yield (conjugation step, over 2 steps from everolimus) [% yield]	isolated mass [1]	isolated yield [1] [%]
PEPTIDE1{[Pte].[gGlu].[SacGlu].E.[SacGlu].E.[SacGlu].C}|CHEM1{[EverolimusOCO2EtS]}$PEPTIDE1,CHEM1,8:R3-1:R1$$$V2.0	50	–	–
Tetra-Saccharoglutamate-Bis-tGlu-Folate Spacer EC0491	–	˜100 mg	51

HELM strings list residues between dots; [ac] is acetyl, [am] amide, other brackets name non-standard units.
